Measurements reported in PubChem BioAssay AID504764 (Drosophila RNAi Screening Center, 2011).
The deposit covers about 22,000 reagents; below is a random part of those that have a named target and a result. Of all reagents, 403 (1.9%) are marked active. 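Unnormalised raw counts per well; ratio z-scores behind the hit calls and whether each hit raises or lowers signal are not deposited.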 A plus sign joins genes that one reagent is predicted to hit. Not given: the amount of reagent.

- Test: 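Genome-wide screen for regulators of Notch-driven gene expression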 (primary screen)
- System: Drosophila Kc167 cells
- Knock-down reagent: long dsRNA against Drosophila genes
- Time to read-out: about 5 days (4 days dsRNA, then 24 h after transfection)
- Conditions: transfection of constitutively active membrane-tethered Notch lacking the extracellular domain, read 24 h later
- Read-out: 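Light from a Notch-responsive E(spl)m3 luciferase reporter under active Notch, with control-promoter and no-Notch reporter wells to normalise; raw counts from paired wells a and b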
- Reading the numbers: induced reporter light, run 1, well a and induced reporter light, run 1, well b: higher = more light from the Notch target reporter with active Notch; control promoter light, run 1, well a and control promoter light, run 1, well b: higher = more light from the viral control promoter (cell number, transfection, viability); uninduced reporter light, run 1, well a: higher = more light from the Notch target reporter without active Notch
- Hit rule: 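Hit if the duplicate-averaged log2 ratio of induced to control-promoter light gives a plate-wise z beyond ±2, or induced to uninduced beyond ±1.8; weak-control or discordant-duplicate wells dropped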
- Calls: active = modifier hit (raised or lowered Notch signal); inactive = not a hit

target gene | amplicon | induced reporter light, run 1, well a | induced reporter light, run 1, well b | control promoter light, run 1, well a | control promoter light, run 1, well b | uninduced reporter light, run 1, well a | activity call
fiz | DRSC20188 | 1.72e5 | 1.59e5 | 2.27e5 | 2.21e5 | 13365 | inactive
Gpdh2 | DRSC04346 | 2.05e5 | 1.75e5 | 1.71e5 | 1.77e5 | 13288 | inactive
CG7856 | DRSC04896 | 1.63e5 | 1.20e5 | 1.45e5 | 1.40e5 | 9990 | inactive
Cyp4c3 | DRSC16631 | 2.04e5 | 2.52e5 | 1.31e5 | 1.18e5 | 11125 | inactive
unc79 | DRSC15746 | 1.50e5 | 1.65e5 | 1.90e5 | 2.14e5 | 13038 | inactive
CG8774 | DRSC16445 | 1.44e5 | 1.44e5 | 1.25e5 | 1.07e5 | 10210 | inactive
lncRNA:CR42862 + CG33229 | DRSC08497 | 95890 | 87750 | 1.63e5 | 1.87e5 | 5795 | inactive
verm | DRSC11038 | 1.02e5 | 1.35e5 | 69785 | 81780 | 8615 | inactive
CG9084 | DRSC07335 | 90770 | 1.37e5 | 1.64e5 | 1.65e5 | 13160 | inactive
Lcp65Ad | DRSC11211 | 2.08e5 | 1.95e5 | 1.69e5 | 2.18e5 | 13655 | inactive
mtDNA-helicase | DRSC02912 | 1.41e5 | 1.80e5 | 85630 | 1.17e5 | 21115 | inactive
CG34268 | DRSC07874 | 2.43e5 | 2.04e5 | 1.74e5 | 1.86e5 | 20135 | inactive
CG33978 | DRSC17106 | 49325 | 58655 | 68840 | 73925 | 5140 | inactive
CG32625 | DRSC18994 | 1.09e5 | 91755 | 1.14e5 | 1.11e5 | 8325 | inactive
Cog7 | DRSC16331 | 1.16e5 | 1.36e5 | 1.55e5 | 1.61e5 | 10935 | inactive
Irk2 | DRSC15569 | 1.42e5 | 1.47e5 | 1.87e5 | 2.09e5 | 14338 | inactive
CG13004 | DRSC19523 | 30855 | 29715 | 23480 | 22665 | 3990 | inactive
CG14257 | DRSC14752 | 1.57e5 | 1.39e5 | 1.63e5 | 1.81e5 | 11015 | inactive
CG31975 + ovm | DRSC00323 | 92875 | 67065 | 54780 | 31535 | 5690 | inactive
beat-Ic | DRSC01524 | 78550 | 60945 | 70725 | 74610 | 7935 | inactive
beat-Ic | DRSC03491 | 43385 | 46715 | 28790 | 28440 | 5585 | inactive
Phf5a | DRSC03261 | 1.75e5 | 1.88e5 | 2.45e5 | 1.81e5 | 8440 | inactive
Ald1 | DRSC14109 | 1.36e5 | 1.63e5 | 1.99e5 | 2.26e5 | 12538 | inactive
lds | DRSC16988 | 1.04e5 | 93855 | 65080 | 75730 | 7695 | inactive
CG3123 | DRSC00570 | 1.23e5 | 1.28e5 | 1.24e5 | 1.06e5 | 10695 | inactive
CG33251 (retired record) + CG9915 | DRSC20217 | 71455 | 74980 | 97740 | 70690 | 11982 | inactive
scramb2 | DRSC08543 | 99540 | 73930 | 1.83e5 | 1.12e5 | 5232 | inactive
Lkb1 | DRSC16481 | 1.31e5 | 1.06e5 | 81865 | 65400 | 11115 | inactive
CG12784 | DRSC14539 | 2.77e5 | 2.75e5 | 2.04e5 | 2.21e5 | 20115 | inactive
mRpL30 | DRSC18416 | 1.03e5 | 1.09e5 | 1.37e5 | 1.64e5 | 8505 | inactive
CG1792 | DRSC15290 | 1.55e5 | 1.33e5 | 2.23e5 | 2.34e5 | 11420 | inactive
Cnot4 | DRSC02830 | 1.18e5 | 1.52e5 | 69230 | 98195 | 16445 | inactive
Cnot4 | DRSC02831 | 1.28e5 | 1.44e5 | 60660 | 91390 | 15555 | inactive

Part of the list above, set out differently:
target gene,amplicon,"induced reporter light, run 1, well a","induced reporter light, run 1, well b","control promoter light, run 1, well a","control promoter light, run 1, well b","uninduced reporter light, run 1, well a",activity call
beat-Ic,DRSC01524,78550,60945,70725,74610,7935,inactive
beat-Ic,DRSC03491,43385,46715,28790,28440,5585,inactive
Phf5a,DRSC03261,1.75e5,1.88e5,2.45e5,1.81e5,8440,inactive
Ald1,DRSC14109,1.36e5,1.63e5,1.99e5,2.26e5,12538,inactive
lds,DRSC16988,1.04e5,93855,65080,75730,7695,inactive
CG3123,DRSC00570,1.23e5,1.28e5,1.24e5,1.06e5,10695,inactive

Continued:
target gene | amplicon | induced reporter light, run 1, well a | induced reporter light, run 1, well b | control promoter light, run 1, well a | control promoter light, run 1, well b | uninduced reporter light, run 1, well a | activity call
sens-2 | DRSC02136 | 2.23e5 | 1.31e5 | 1.47e5 | 1.81e5 | 12325 | inactive
sens-2 | DRSC02613 | 1.42e5 | 1.41e5 | 1.22e5 | 1.14e5 | 9725 | inactive
sens-2 | DRSC21374 | – | – | – | – | – | inactive
CG4404 | DRSC19897 | 1.55e5 | 1.10e5 | 2.24e5 | 2.21e5 | 11100 | inactive
lbl | DRSC16986 | 1.47e5 | 1.41e5 | 1.57e5 | 1.47e5 | 9770 | inactive
dyw | DRSC18228 | 1.21e5 | 1.08e5 | 1.88e5 | 2.00e5 | 9365 | inactive
Tfb1 | DRSC07082 | 1.06e5 | 90265 | 89405 | 86870 | 7895 | inactive
betaNACtes4 | DRSC19801 | 71935 | 68605 | 1.01e5 | 93245 | 12950 | inactive
Rpn10 | DRSC11876 | 1.22e5 | 85120 | 93455 | 78165 | 7920 | inactive
ccb | DRSC20501 | 90770 | 1.05e5 | 88215 | 96480 | 9870 | inactive
alpha-Est4aPsi | DRSC12473 | 1.31e5 | 1.71e5 | 1.35e5 | 1.85e5 | 9795 | inactive
Rab1 | DRSC16808 | 60280 | 48905 | 85070 | 78725 | 3645 | inactive
ppk14 | DRSC03238 | 1.42e5 | 1.66e5 | 1.71e5 | 1.82e5 | 9335 | inactive
Atg14 | DRSC14421 | 1.65e5 | 1.55e5 | 2.26e5 | 2.48e5 | 11870 | inactive
nxf4 | DRSC12548 | 73965 | 1.01e5 | 67995 | 68015 | 5245 | inactive
beat-VI | DRSC14474 | 1.14e5 | 1.14e5 | 1.91e5 | 1.46e5 | 9592 | inactive
beat-VI | DRSC14727 | 1.27e5 | 1.39e5 | 2.00e5 | 1.91e5 | 11305 | inactive
